Results are given in words; binding and its absence hold for the method and conditions named. Binding seen in cells or lysates may run through a third protein. These calls come from enrichment with a bait or labelling near it, and not all partners need be listed.

The target in this test is OsAP4-His (rice (Oryza sativa)). The test is described as follows: affinity purification with mass spectrometry; total proteins from rice plants incubated with E. coli-expressed OsAP4-His; pull-down coupled with mass spectrometry; only the target purified.

B1: OsCATC (enzyme, UniProt Q10S82 1-492)
chain: MDPYKHRPSSSFNGPLWSTNSGAPVWNNNNSLTVGSRGPILLEDYHLVEKLANFDRERIPERVVHARGASAKGFFEVTHDITHLTCADFLRAPGVQTPVIVRFSTVIHERGSPETLRDPRGFAIKFYTREGNWDLVGNNFPVFFIRDGMKFPDMVHSLKPNPKSHVQENWRILDFFSHHPESLHMFTFLFDDIGIPADYRHMDGSGVNTYTLVNRAGKSHYVKFHWKPTCGVKSLLDDEAVTVGGTNHSHATQDLYDSIAAGNFPEWKLFIQTIDPDHEDRFDFDPLDVTKTWPEDIVPLQPVGRMVLNRNIDNFFSENEQLAFCPGIIVPGIYYSDDKLLQTRIFSYSDTQRHRLGPNYLLLPPNAPKCAHHNNHYDGFMNFMHRDEEVDYFPSRYDPAKHAPRYPIPSATLTGRREKVVIAKENNFKQPGERYRSWDPARQDRFIKRWIDALSDPRLTHEIRSIWLSYWSQADRSLGQKLASRLSAKPSM
As for B1, the binding result is listed as “binds”.

(Values after paper PMC12298810.)
